PubChem BioAssay AID1259331, Drosophila RNAi Screening Center, 2017
The whole screen tested about 3,100 reagents; shown is an unselected part. Over the whole deposit, 126 (4.1%) were called active. 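Calls are per reagent; zinc was so toxic that few knock-downs lowered ATP further, so most hits raise ATP.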 Raw values vary from plate to plate and are shown uncorrected. Reagent sequences are not shown. Not stated in the record: the amount of reagent.

Aim: 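Genes whose knock-down changes cell survival under toxic zinc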 (primary screen)
System: Drosophila S2R+ cells
Reagents: long dsRNA against Drosophila genes
Time to read-out: 5 days (4 days knock-down, then 1 day zinc)
Treatment: zinc chloride at 15 mM final level for 1 day
Measured: 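Luminescent ATP assay standing in for viability; Z score is the mean over three replicate plates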
Scale: mean Z score: higher = more ATP than other wells, better survival under zinc; ATP luminescence: higher = more ATP, more viable cells
Rule for the call: 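Hit when the absolute Z score is greater than 1.5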
Calls: active = hit, ATP up or down; inactive = not a hit

Gene | dsRNA | mean Z score | ATP luminescence, replicate 1 | ATP luminescence, replicate 2 | activity call
Tim17b2 | DRSC28544 | 0.0425 | 61369 | 62741 | inactive
Nup93-1 | DRSC19344 | 5.67 | 1.11e5 | 1.14e5 | active
Nup93-1 | DRSC39780 | 5.53 | 1.31e5 | 1.37e5 | active
Fur1 | DRSC13707 | -0.385 | 69138 | 58660 | inactive
Fur1 | DRSC16676 | 2.26 | 74185 | 75261 | active
Vha100-1 | DRSC14148 | 0.566 | 52281 | 51972 | inactive
Vha100-1 | DRSC39862 | -0.147 | 49622 | 59809 | inactive
brv3 | DRSC25544 | -0.0143 | 58161 | 55110 | inactive
CG15096 | DRSC06525 | -0.0419 | 30387 | 31387 | inactive
CG15096 | DRSC29737 | 0.203 | 65605 | 63427 | inactive
CG8237 | DRSC07119 | -0.446 | 26719 | 29976 | inactive
CG8237 | DRSC26686 | 2.18 | 90247 | 94285 | active
Ir48c | DRSC06154 | -1.24 | 66480 | 50721 | inactive
Ir48c | DRSC39434 | -0.526 | 42937 | 44308 | inactive
klar | DRSC22393 | -0.559 | 50052 | 50841 | inactive
arr | DRSC07451 | 0.108 | 69733 | 71145 | inactive
arr | DRSC27035 | 0.366 | 61799 | 60872 | inactive
dsb | DRSC08542 | 0.0245 | 71812 | 74421 | inactive
put | DRSC17039 | -0.0606 | 44257 | 47343 | inactive
put | DRSC36611 | -0.571 | 40270 | 39028 | inactive
put | DRSC36612 | -0.463 | 39885 | 43125 | inactive
Lgr1 | DRSC16675 | -0.332 | 51269 | 55522 | inactive
Lgr1 | DRSC39668 | -0.382 | 53207 | 54150 | inactive
CG4928 | DRSC19342 | 0.00932 | 45285 | 45748 | inactive
CG4928 | DRSC29007 | -0.299 | 60426 | 53087 | inactive
Zip42C.2 | DRSC05004 | -0.151 | 80388 | 67715 | inactive
Zip42C.2 | DRSC39021 | 1.67 | 52116 | 99277 | active
PIG-Q | DRSC19138 | 0.117 | 68949 | 73683 | inactive
PIG-Q | DRSC39435 | 0.0866 | 52203 | 50035 | inactive
CG8405 | DRSC07166 | -0.439 | 63256 | 65434 | inactive
CG8405 | DRSC39857 | -1.07 | 39786 | 44236 | inactive
Or33b | DRSC03387 | -0.345 | 43862 | 39696 | inactive
Tmtc4 | DRSC15702 | 0.0681 | 35239 | 62313 | inactive
Tmtc4 | DRSC39629 | -0.519 | 51509 | 51784 | inactive
mthl6 | DRSC10234 | -0.345 | 68864 | 55659 | inactive
mthl6 | DRSC39848 | 0.211 | 56413 | 62158 | inactive
Ntl | DRSC03003 | -0.115 | 54974 | 36953 | inactive
Ntl | DRSC28007 | 0.24 | 62492 | 60958 | inactive
m | DRSC20181 | 0.64 | 80235 | 72997 | inactive
m | DRSC29636 | -0.212 | 57357 | 58900 | inactive
CG3625 | DRSC00008 | -0.0589 | 43674 | 40348 | inactive
CG3625 | DRSC00621 | 1.04 | 68469 | 73460 | inactive
Zip42C.1 | DRSC05003 | -0.232 | 88572 | 67303 | inactive
Rh50 | DRSC08692 | -0.394 | 28322 | 30062 | inactive
Sr-CIV | DRSC00575 | 0.0549 | 54219 | 42158 | inactive
Sr-CIV | DRSC24930 | 0.227 | 67200 | 62535 | inactive
ppk5 | DRSC11492 | -0.524 | 58711 | 55985 | inactive
ppk5 | DRSC39548 | -0.474 | 55529 | 51629 | inactive
Sarm | DRSC08906 | 0.165 | 45525 | 42919 | inactive
Sarm | DRSC08907 | -0.919 | 29187 | 32324 | inactive
Sarm | DRSC10038 | -0.467 | 67372 | 52761 | inactive
Sarm | DRSC10927 | -0.00433 | 72774 | 65385 | inactive
Sarm | DRSC10929 | -0.358 | 28433 | 29719 | inactive
Vang | DRSC07570 | 0.0991 | 1.08e5 | 72911 | inactive
Ent1 | DRSC00330 | -0.578 | 48029 | 48097 | inactive
Inx5 | DRSC20051 | 0.503 | 63067 | 43331 | inactive
Tmtc1 | DRSC00314 | -0.402 | 42045 | 39713 | inactive
Tmtc1 | DRSC00411 | -0.36 | 38695 | 43742 | inactive
CG42260 | DRSC04385 | 0.29 | 56585 | 38548 | inactive
drl | DRSC03523 | 0.0608 | 51252 | 63271 | inactive
drl | DRSC28564 | -0.256 | 57919 | 56962 | inactive
drl | DRSC37026 | 0.584 | 53312 | 57442 | inactive
Spp | DRSC00328 | 0.252 | 52864 | 67132 | inactive
CG31454 | DRSC22801 | 0.202 | 51184 | 47086 | inactive
CG31454 | DRSC24377 | -0.656 | 52332 | 50211 | inactive
Lerp | DRSC14751 | 0.706 | 80647 | 74798 | inactive
Lerp | DRSC16030 | 0.125 | 67303 | 68957 | inactive
Lerp | DRSC16031 | 0.859 | 79275 | 81348 | inactive
nAChRbeta2 | DRSC17010 | -0.423 | 42216 | 40656 | inactive
Lrp4 | DRSC20118 | -0.485 | 38753 | 41760 | inactive
PGRP-LC | DRSC08980 | -0.227 | 30473 | 48114 | inactive
PGRP-LC | DRSC10416 | 0.0673 | 77662 | 62278 | inactive
PGRP-LC | DRSC10417 | -0.27 | 72539 | 57682 | inactive
PGRP-LC | DRSC28556 | -0.823 | 45016 | 52463 | inactive
ru | DRSC08258 | -0.000715 | 68298 | 75883 | inactive
ru | DRSC28529 | 1.29 | 81676 | 80925 | inactive
BI-1 | DRSC10782 | 0.254 | 31760 | 32684 | inactive
BI-1 | DRSC39448 | 0.171 | 53918 | 54390 | inactive
Tsp42El | DRSC06186 | -0.348 | 40931 | 39148 | inactive
CG5021 | DRSC10469 | 0.254 | 73906 | 70027 | inactive
CG5021 | DRSC39741 | 0.631 | 72260 | 68006 | inactive
tw | DRSC18537 | -0.607 | 40553 | 36928 | inactive
tw | DRSC39796 | -0.175 | 50378 | 57339 | inactive
spin | DRSC22271 | 0.227 | 58111 | 61175 | inactive
spin | DRSC39628 | -0.0268 | 63324 | 54339 | inactive
CG5888 | DRSC01929 | 0.172 | 57399 | 59963 | inactive
CG5888 | DRSC28190 | -0.699 | 41651 | 51043 | inactive

Ordered by “ATP luminescence, replicate 2” (low to high): some entries from above.
Gene | dsRNA | mean Z score | ATP luminescence, replicate 1 | ATP luminescence, replicate 2 | activity call
CG8237 | DRSC07119 | -0.446 | 26719 | 29976 | inactive
CG15096 | DRSC06525 | -0.0419 | 30387 | 31387 | inactive
brv3 | DRSC25544 | -0.0143 | 58161 | 55110 | inactive
CG15096 | DRSC29737 | 0.203 | 65605 | 63427 | inactive
